Test results published in PubChem BioAssay AID504834 (National Center for Advancing Translational Sciences (NCATS), 2011).
Among all 320,000 compounds or so, about 22,000 (6.9%) were called active. Inconclusive results, whose numbers are uncertain, are shown with a selection of clear calls. The call rests on the fitted dose curve; in most records, active means well fitted inhibition curve with a large enough effect; inconclusive means small, poorly fitted or top-dose-only effect, or another doubt; inactive means no such curve, though single readings can be large or run the other way. A potency beside an inconclusive call is a rough fit, not a confirmed value.

Assay: Primary qHTS for delayed death inhibitors of the malarial parasite plastid, 96 hour incubation
Details: P. falciparum luciferase reporter growth; series mostly up to 28.7 µM; activity change, negative = inhibition: at the top concentration
Outline: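 Plates of compound plus infected erythrocytes (2% hematocrit, 0.05% parasitemia final) incubate 96 hours, 37 C, 5% CO2. Detection reagent added; reduced luminescence from the parasites' luciferase reporter flags inhibition.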
On the % scale 0 is the no-effect control and ±100 the full control effect; potency means the concentration at half of the fitted maximal effect.

Compound	Potency	activity change, negative = inhibition
O=C(c1ccncc1)N1CCN(S(=O)(=O)c2cccc(F)c2)CC1	inconclusive: 18.5 µM [inhibitor, single point]	–
COc1ccc2nc(N3CCCC(C(=O)NCCc4ccc(OC)c(OC)c4)C3)sc2c1 (stereo not drawn)	inconclusive: 9.28 µM [inhibitor, single point]	–
Cc1cc(C(=O)CCC(=O)N(C)CC(=O)Nc2c(Cl)cccc2Cl)c(C)s1	–	inactive: 5.93%
Cc1ccc(-c2[nH]c3cc(C(N)=O)ccc3c(=O)c2O)cc1	inconclusive: 13.1 µM [inhibitor, single point]	–
Cc1ccc(O)c(C(=O)CC(=O)c2ccc(Cl)cc2)c1	inconclusive: 18.5 µM [inhibitor, single point]	–
CC(=O)Nc1ccc(C(=O)Nc2cc(C(F)(F)F)ccc2-n2cnc3ccccc32)cc1	–	inactive: 28.7%
OC(CON=C1c2ccccc2-c2ccccc21)CN1CCNCC1 (stereo not drawn)	inconclusive: 9.28 µM [inhibitor, single point]	–
CCOc1ccc(-n2c(C)cc(/C=N/N(C)C)c2C)cc1	inconclusive: 10.4 µM [inhibitor, single point]	–
CN1CCN(c2ccc(NC(=O)Oc3ccccc3)cc2)CC1	inconclusive: 13.1 µM [inhibitor, single point]	–
O=C(NCCNC(=O)c1ccc(-c2ccc(Cl)c(Cl)c2)o1)c1cnccn1	inconclusive: 1.65 µM [inhibitor, partial curve, poor fit]	–
C[n+]1ccccc1COc1ccc(C(C)(C)C)cc1	active: 0.37 µM	–
O=c1c2ccccc2nc(Cc2ccccc2)n1-c1ccccc1	inconclusive: 18.5 µM [inhibitor, single point]	–
COc1ccc(CCNC(=O)c2cccnc2SC)cc1	–	inactive: -2.84%
CN(CC(=O)N1CCCc2c1c(=O)oc1ccc(O)cc21)Cc1ccccc1	inconclusive: 10.4 µM [inhibitor, partial curve, poor fit]	–
Cc1c(Cl)ccc2c(C(=O)Nc3cc(C(C)(C)C)on3)cc(-c3ccccn3)nc12	active: 2.08 µM	–
Nc1c(C(=O)O)cnn1-c1ccccc1	inconclusive: 1.04 µM [inhibitor, full curve, poor fit]	–
CC1C(=O)N2CCCc3cc(NC(=O)C(=O)NCCCc4ccccc4)cc1c32 (stereo not drawn)	inconclusive: 18.5 µM [inhibitor, single point]	–
COc1cc([N+](=O)[O-])cc(/C=N/NC(=O)C(C)Nc2ccccc2C)c1O (stereo not drawn)	–	inactive: -58.2%
Cc1c(-c2ccccc2)nc2ccccc2c1C(=O)Nc1ccncc1	active: 0.329 µM	–
CC/C(=N/Nc1ccccc1)c1cnnc(SC)n1	inconclusive: 11.7 µM [inhibitor, partial curve]	–
N#CC1=C(Nc2ccc(Br)cc2)CCC1	–	inactive: 99.6%
COc1cc(/C=N/NC(=O)C(=O)NCC2CCCO2)ccc1O (stereo not drawn)	–	inactive: 44.7%
Cc1ccc(N2C(=O)c3ccccc3C2=O)cc1C	inconclusive: 2.62 µM [inhibitor, single point]	–
Cn1nnnc1SCC(=O)c1ccco1	–	inactive: 30.2%
Cn1c(-c2ccc(Br)cc2)cnc1NCc1cccnc1	inconclusive: 0.0522 µM [inhibitor, full curve, poor fit]	–

Five of the compounds above, as a markdown table.

| Compound | Potency | activity change, negative = inhibition |
| --- | --- | --- |
| Nc1c(C(=O)O)cnn1-c1ccccc1 | inconclusive: 1.04 µM [inhibitor, full curve, poor fit] | – |
| CC1C(=O)N2CCCc3cc(NC(=O)C(=O)NCCCc4ccccc4)cc1c32 (stereo not drawn) | inconclusive: 18.5 µM [inhibitor, single point] | – |
| CC/C(=N/Nc1ccccc1)c1cnnc(SC)n1 | inconclusive: 11.7 µM [inhibitor, partial curve] | – |
| Cn1nnnc1SCC(=O)c1ccco1 | – | inactive: 30.2% |
| Cn1c(-c2ccc(Br)cc2)cnc1NCc1cccnc1 | inconclusive: 0.0522 µM [inhibitor, full curve, poor fit] | – |

Remaining list, next part.

Compound	Potency	activity change, negative = inhibition
Oc1ccc(C[C@@H]2CNCCN2CCCCC2CCCCC2)cc1	inconclusive: 18.5 µM [inhibitor, single point]	–
CC(=O)Nc1cccc(/C(C)=N\NC(=O)c2ccc(Cn3nc([N+](=O)[O-])c(Cl)c3C)o2)c1	inconclusive: 18.5 µM [inhibitor, single point]	–
CC(/C=C1\SC(=S)N(NS(=O)(=O)c2ccc(C)cc2)C1=O)=C\c1ccccc1	–	inactive: -1.35%
CN(C)N(C(=O)c1cc(-c2cccs2)nn1-c1ccccc1)C1CCS(=O)(=O)C1 (stereo not drawn)	active: 5.22 µM	–
Cc1ccc(F)cc1CNC(=O)c1cc(COc2ccc3ncccc3c2)on1	inconclusive: 13.1 µM [inhibitor, partial curve]	–
C[N+]12CCCCC1[C@@H](CO)CCC2 (stereo partly drawn)	inconclusive: 2.94 µM [inhibitor, partial curve]	–
COc1ccc(CNc2nc3ccccc3s2)cc1OC	inconclusive: 18.5 µM [inhibitor, single point]	–
NC(=O)COc1ccc2cc(-c3ccc(F)cc3)c(=O)oc2c1	–	inactive: 42.3%
O=C1c2ccccc2NC(c2ccc(-c3cccc([N+](=O)[O-])c3)o2)N1O (stereo not drawn)	inconclusive: 18.5 µM [inhibitor, single point]	–
CN(C)S(=O)(=O)c1cccc(NC(=O)c2ccccc2OCc2ccc(F)cc2)c1	inconclusive: 9.28 µM [inhibitor, partial curve, poor fit]	–
COc1ccc(C2Nc3ccccc3NC3=C2C(=O)CC(C)(C)C3)c(OC)c1OC (stereo not drawn)	inconclusive: 20.8 µM [inhibitor, partial curve, poor fit]	–
O=C(CSc1ccc2c(c1)OCCO2)N1CCN(c2ccccc2O)CC1	active: 7.38 µM	–
CN(CCc1cnn(C)c1)Cc1nc(CC2CC2)no1	inconclusive: 18.5 µM [inhibitor, single point]	–
CC1CCCC(C)N1C(=O)c1ccc(CS(=O)(=O)c2ccccc2)cc1 (stereo not drawn)	inconclusive: 18.5 µM [inhibitor, single point]	–
COc1ccc(N2CCN(C(=O)c3cc(C)oc3C)CC2)cc1	–	inactive: 18.8%
CC1(C)CC(=O)c2sc(NC(=O)CN3C(=O)CCC3=O)nc2C1	–	inactive: 39.5%
COc1ccc(Br)cc1C(=O)N/N=C/c1ccc2c(c1)n(C)c(=O)n2C	inconclusive: 18.5 µM [inhibitor, single point]	–
O=C(O)c1nsc(Cl)c1Cl	inconclusive: 0.0928 µM [inhibitor, full curve, poor fit]	–
COC(=O)c1nnn(CC(=O)NC(=O)Nc2c(C)cccc2C)c1C(=O)OC	inconclusive: 4.15 µM [inhibitor, single point]	–
CCSc1nnc(NC(=O)CSc2sc3c(O)cc(=O)[nH]c3c2C#N)s1	–	inactive: 1.03%
O=C(NC1=NCCS1)c1cc(-c2cccs2)nc2ccccc12	inconclusive: 0.465 µM [inhibitor, full curve, poor fit]	–
Cc1cc(C)nc(/N=C/c2c(O)n(C)c(=O)n(C)c2=O)n1	inconclusive: 18.5 µM [inhibitor, single point]	–
COc1ccc2nc(N)sc2c1	–	inactive: -1.71%
O=C1CCc2cc(S(=O)(=O)NC3CCCCC3)ccc2N1	inconclusive: 0.828 µM [inhibitor, full curve, poor fit]	–
Cc1cc(=O)oc2c3c(cc(OCC(=O)N4CCC(C(=O)O)CC4)c12)OC(C)(C)CC3	inconclusive: 13.1 µM [inhibitor, single point]	–

Compound	Potency	activity change, negative = inhibition
Cc1c(N=C2SCC(=O)N2/N=C\c2ccc(Br)cc2)c(=O)n(-c2ccccc2)n1C	inconclusive: 1.85 µM [inhibitor, full curve]	–
Cc1ccc(NC(=O)CN(C)C(=O)COc2cccc3cccnc23)cc1	–	inactive: 20.5%
N/C(Cc1ccc([N+](=O)[O-])cc1)=N\OC(=O)c1ccc(Br)cc1	–	inactive: 16.2%
CC(C)[C@H](NC(=O)C1CCC(CNC(=O)[C@@H]2CCCN2C(=O)OC(C)(C)C)CC1)C(=O)O (stereo partly drawn)	–	inactive: -12.1%
CC(=O)Nc1cccc(/C(C)=N/NC(=O)c2ccc(O)cc2)c1	–	inactive: 33.6%
O=C(COC(=O)CCCOc1ccccc1)NC1CCS(=O)(=O)C1 (stereo not drawn)	–	inactive: 15.5%
S=c1nc(C2CCCCC2)[nH]c2ccccc12	active: 2.33 µM	–
O=C(N/C(=C/C=C\c1ccccc1)C(=O)N1CCOCC1)c1ccc(Br)cc1	–	inactive: 5.79%
O=C(Nn1cnc2ccccc2c1=O)c1ccc(Cl)c([N+](=O)[O-])c1	inconclusive: 9.28 µM [inhibitor, single point]	–
Cc1ccc(C(=O)NCCc2cc3ccc(C)c(C)c3[nH]c2=O)cc1[N+](=O)[O-]	inconclusive: 1.17 µM [inhibitor, full curve]	–
COC(=O)c1c(C(=O)OC)c(-c2ccc(C)cc2)n2c1CS(=O)(=O)C2	active: 1.65 µM	–
Cc1ccccc1Nc1c([N+](=O)[O-])cncc1[N+](=O)[O-]	–	inactive: 72.7%
COCCCNC(=O)CCC(=O)NNc1nc2ccccc2c2nc(C)nn12	inconclusive: 8.28 µM [inhibitor, partial curve, poor fit]	–
O=C(COc1ccc(Cl)cc1)NCc1nnc(SCC(=O)NC2CCCCC2)o1	inconclusive: 18.5 µM [inhibitor, single point]	–
CC(C)(C)NC(=O)NC(=O)CN1CCN(S(=O)(=O)c2ccccc2)CC1	–	inactive: -2.23%
COc1cccc(CNC(=O)CCNC(=O)Cn2ccc3ccccc3c2=O)c1	inconclusive: 14.7 µM [inhibitor, partial curve, poor fit]	–
CCOC(=O)c1cc(-c2csc(N/N=C/c3ccccc3Cl)n2)on1	active: 2.62 µM	–
CCOc1ccccc1OCC(=O)Nc1ccc(Cl)cc1C(=O)c1ccccc1	inconclusive: 5.86 µM [inhibitor, partial curve, poor fit]	–
Fc1cc2[nH]cnc2cc1Cl	inconclusive: 10.4 µM [inhibitor, single point]	–
O=C(Nc1nc2c(s1)CN(Cc1ccccc1)CC2)c1cccc(S(=O)(=O)N2CCc3ccccc32)c1	active: 8.28 µM	–
COC(=O)c1c(-c2ccc(OC)cc2)oc2ccccc12	–	inactive: 48.9%
C/C(=N/NS(=O)(=O)c1ccc(F)cc1)c1ccncc1	inconclusive: 14.7 µM [inhibitor, single point]	–
CCN1CCN(c2cc(C)nc(-c3ccccc3O)n2)CC1	inconclusive: 18.5 µM [inhibitor, partial curve, poor fit]	–
